# Test results reported in the supplement of paper PMC8728848.
# The other results are listed elsewhere or left out.
# B1: SabA (Helicobacter pylori) (protein)
# chain: MGSSHHHHHHSSGLVPRGSHMENLYFQGEDNGFFVSAGYQIGEAVQMVKNTGELKNLNEKYEQLSQYLNQVASLKQSIQNANNIELVNSSLNYLKSFTNNNYNSTTQSPIFNAVQAVITSVLGFWSLYAGNYFTFFVGKKVGDSGQPASVQGNPPFKTIIENCSGIENCAMDQTTYDKMKKLAEDLQAAQTNSATKGNNLCALSGCAATDSTSNPPNSTVSNALNLAQQLMDLIANTKTAMMWKNIVISGVSNTSGAITSTNYPTQYAVFNNIKAMIPILQQAVTLSQSNHTLSASLQAQATGSQTNPKFAKDIYTFAQNQKQVISYAQDIFNLFNSIPAEQYKYLEKAYLKIPNAGSTPTNPYRQVVNLNQEVQTIKNNVSYYGNRVDAALSVARDVYNLKSNQAEIVTAYNDAKTLSEEISKLPHNQVNTKDIVTLPYDKNAPAAGQSNYQINPEQQSNLNQALAAMSNNPFKKVGMISSQNNNGA
# How the values were obtained:
# Experiment in all cases: glycan array binding signal (z-score within array); higher = stronger binding
# Conditions in all cases: glycan notation: IUPAC condensed, linker removed
# [1] = target: Neu5Ac(a2-6)Gal(b1-4)GlcNAc(b1-3)[Neu5Ac(a2-6)Gal(b1-4)GlcNAc(b1-6)]GalNAc
# Outline: (§1)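 The binding signal is a Z-score computed within each array. Data were drawn from 3228 arrays in the Consortium for Functional Glycomics database, restricted to those with a known protein sequence. Scores were averaged over arrays of the same protein sequence at different concentrations or buffers, and over linkers, and negative values can be taken as non-binding.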
# [2] = target: Neu5Ac(a2-6)Gal(b1-4)GlcNAc(b1-6)GalNAc
# Outline: as §1
# [3] = target: Neu5Ac(a2-6)Gal(b1-4)GlcNAc(b1-6)[Gal(b1-3)GlcNAc(b1-3)]Gal(b1-4)Glc
# Outline: as §1
# [4] = target: Neu5Ac(a2-6)Gal(b1-4)GlcNAc(b1-6)[Gal(b1-3)]GalNAc
# Outline: as §1
# [5] = target: Neu5Ac(a2-6)Gal(b1-4)GlcNAc6S
# Outline: as §1
# Neu5Ac(a2-6)GalNAc = target: Neu5Ac(a2-6)GalNAc
# Outline: as §1
# [6] = target: Neu5Ac(a2-6)GalNAc(b1-4)GlcNAc
# Outline: as §1
# [7] = target: Neu5Ac(a2-6)GalNAc(b1-4)GlcNAc6S
# Outline: as §1
# [8] = target: Neu5Ac(a2-6)GlcNAc(b1-4)GlcNAc
# Outline: as §1
# [9] = target: Neu5Ac(a2-6)GlcNAc(b1-4)GlcNAc(b1-4)GlcNAc
# Outline: as §1
# Neu5Ac(a2-8)Neu5Ac = target: Neu5Ac(a2-8)Neu5Ac
# Outline: as §1
# [10] = target: Neu5Ac(a2-8)Neu5Ac(a2-3)Gal(b1-3)GalNAc(b1-4)[Neu5Ac(a2-3)]Gal(b1-4)Glc
# Outline: as §1
# [11] = target: Neu5Ac(a2-8)Neu5Ac(a2-3)Gal(b1-3)GalNAc(b1-4)[Neu5Ac(a2-8)Neu5Ac(a2-3)]Gal(b1-4)Glc
# Outline: as §1
# [12] = target: Neu5Ac(a2-8)Neu5Ac(a2-3)Gal(b1-4)Glc
# Outline: as §1
# [13] = target: Neu5Ac(a2-8)Neu5Ac(a2-3)Gal(b1-4)GlcNAc
# Outline: as §1
# [14] = target: Neu5Ac(a2-8)Neu5Ac(a2-3)[Gal(b1-3)GalNAc(b1-4)]Gal(b1-4)Glc
# Outline: as §1
# [15] = target: Neu5Ac(a2-8)Neu5Ac(a2-3)[GalNAc(b1-4)]Gal(b1-4)Glc
# Outline: as §1
# [16] = target: Neu5Ac(a2-8)Neu5Ac(a2-8)Neu5Ac
# Outline: as §1
# [17] = target: Neu5Ac(a2-8)Neu5Ac(a2-8)Neu5Ac(a2-3)Gal(b1-4)Glc
# Outline: as §1
# [18] = target: Neu5Ac(a2-8)Neu5Ac(a2-8)Neu5Ac(a2-3)[Gal(b1-3)GalNAc(b1-4)]Gal(b1-4)Glc
# Outline: as §1
# [19] = target: Neu5Ac(a2-8)Neu5Ac(a2-8)Neu5Ac(a2-3)[GalNAc(b1-4)]Gal(b1-4)Glc
# Outline: as §1
# [20] = target: Neu5Ac(a2-8)Neu5Ac(a2-8)Neu5Ac(a2-8)Neu5Ac(a2-3)[GalNAc(b1-4)]Gal(b1-4)Glc
# Outline: as §1
# [21] = target: Neu5Ac(a2-8)Neu5Gc(a2-3)Gal(b1-4)GlcNAc
# Outline: as §1
# [22] = target: Neu5Ac(b2-6)Gal(b1-4)GlcNAc
# Outline: as §1
# Neu5Ac(b2-6)GalNAc = target: Neu5Ac(b2-6)GalNAc
# Outline: as §1
# [23] = target: Neu5Ac9Ac(a2-3)Gal(b1-3)GlcNAc
# Outline: as §1
# [24] = target: Neu5Ac9Ac(a2-3)Gal(b1-4)GlcNAc
# Outline: as §1
# [25] = target: Neu5Ac9Ac(a2-6)Gal(b1-4)GlcNAc
# Outline: as §1
# [26] = target: Neu5Gc(a2-3)Gal(b1-3)GlcNAc
# Outline: as §1
# [27] = target: Neu5Gc(a2-3)Gal(b1-3)[Fuc(a1-4)]GlcNAc
# Outline: as §1
# Neu5Gc(a2-3)Gal(b1-4)Glc = target: Neu5Gc(a2-3)Gal(b1-4)Glc
# Outline: as §1
# [28] = target: Neu5Gc(a2-3)Gal(b1-4)GlcNAc
# Outline: as §1
# [29] = target: Neu5Gc(a2-3)Gal(b1-4)GlcNAc(b1-3)Gal(b1-4)GlcNAc(b1-2)Man(a1-3)[Neu5Gc(a2-3)Gal(b1-4)GlcNAc(b1-3)Gal(b1-4)GlcNAc(b1-2)Man(a1-6)]Man(b1-4)GlcNAc(b1-4)GlcNAc
# Outline: as §1
# [30] = target: Neu5Gc(a2-3)Gal(b1-4)[Fuc(a1-3)]GlcNAc
# Outline: as §1
# [31] = target: Neu5Gc(a2-6)Gal(b1-4)GlcNAc
# Outline: as §1
# Neu5Gc(a2-6)GalNAc = target: Neu5Gc(a2-6)GalNAc
# Outline: as §1
# [32] = target: Neu5Gc(a2-8)Neu5Ac(a2-3)Gal(b1-4)GlcNAc
# Outline: as §1
# [33] = target: Neu5Gc(a2-8)Neu5Gc(a2-3)Gal(b1-4)GlcNAc
# Outline: as §1
binder,measurement,setting,value
B1,glycan array binding signal (z-score),[1],-0.055
same,glycan array binding signal (z-score),[2],0.426
same,glycan array binding signal (z-score),[3],-0.126
same,glycan array binding signal (z-score),[4],-0.359
same,glycan array binding signal (z-score),[5],-0.733
same,glycan array binding signal (z-score),Neu5Ac(a2-6)GalNAc,-0.422
same,glycan array binding signal (z-score),[6],-0.153
same,glycan array binding signal (z-score),[7],-0.819
same,glycan array binding signal (z-score),[8],-0.998
same,glycan array binding signal (z-score),[9],-0.565
same,glycan array binding signal (z-score),Neu5Ac(a2-8)Neu5Ac,-0.263
same,glycan array binding signal (z-score),[10],-0.646
same,glycan array binding signal (z-score),[11],1.52
same,glycan array binding signal (z-score),[12],-0.812
same,glycan array binding signal (z-score),[13],-0.714
same,glycan array binding signal (z-score),[14],-0.068
same,glycan array binding signal (z-score),[15],-0.392
same,glycan array binding signal (z-score),[16],-0.39
same,glycan array binding signal (z-score),[17],-1
same,glycan array binding signal (z-score),[18],-0.628
same,glycan array binding signal (z-score),[19],-0.808
same,glycan array binding signal (z-score),[20],-0.747
same,glycan array binding signal (z-score),[21],-0.097
same,glycan array binding signal (z-score),[22],-0.3
same,glycan array binding signal (z-score),Neu5Ac(b2-6)GalNAc,0.916
same,glycan array binding signal (z-score),[23],-0.627
same,glycan array binding signal (z-score),[24],0.184
same,glycan array binding signal (z-score),[25],-0.019
same,glycan array binding signal (z-score),[26],0.006
same,glycan array binding signal (z-score),[27],-0.056
same,glycan array binding signal (z-score),Neu5Gc(a2-3)Gal(b1-4)Glc,0.049
same,glycan array binding signal (z-score),[28],-0.614
same,glycan array binding signal (z-score),[29],-0.015
same,glycan array binding signal (z-score),[30],-0.121
same,glycan array binding signal (z-score),[31],0.779
same,glycan array binding signal (z-score),Neu5Gc(a2-6)GalNAc,0.191
same,glycan array binding signal (z-score),[32],-0.363
same,glycan array binding signal (z-score),[33],-0.611

# Part of the list above in another layout.
binder	measurement	setting	value
B1	glycan array binding signal (z-score)	[1]	-0.055
same	glycan array binding signal (z-score)	[2]	0.426
same	glycan array binding signal (z-score)	[3]	-0.126
same	glycan array binding signal (z-score)	[4]	-0.359
same	glycan array binding signal (z-score)	[5]	-0.733
same	glycan array binding signal (z-score)	Neu5Ac(a2-6)GalNAc	-0.422
same	glycan array binding signal (z-score)	[6]	-0.153
same	glycan array binding signal (z-score)	[7]	-0.819
